PubChem BioAssay AID1347426 (Functional Genomics Laboratory (NCATS/FGL), 2020)
Out of some 31,000 sequences screened, about 1,400 (4.5%) were called active.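 Rule for the calls: active = median seed-adjusted z-score above 1 or below -1; inactive = the rest.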 The list shows a part of the results.

experiment: Novel Modifiers of Survival Motor Neuron (SMN) Protein: Gene Identification via Genome-wide siRNA Screen; settings: HEK293T SMN2-luciferase reporter, siRNA knockdown, 72 h; actives lie on both sides;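 note: luminescence tracks full-length SMN protein made from the SMN2 reporter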
Summary of the method: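 HEK293T cells stably carrying an SMN2 promoter/splicing cassette–luciferase reporter were reverse-transfected with 1 pmol siRNA per well (druggable-genome library, 3 siRNAs per gene) and grown 72 h at 37 °C. Luminescence, normalized to negative-control siRNA and log10-transformed, was scored as MAD.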

Row | Sequence | median seed-adjusted z-score
1 | GGACUCUACCUGACAGAAATT against CAPN13 | inactive: 0.208
2 | GCAUCUAUCACAACAACUATT against MCM2 | inactive: 0
3 | CAAGUCCCAUUGAUCCUGATT against HLF | inactive: 0.0548
4 | GUCAGUACCUAGAUCGACATT against SART3 | inactive: 0
5 | CACGGUAUAUGUUAGAGUATT against DSG3 | inactive: 0
6 | GUGACAGUGGUAUAACUAATT against TRIM52 | inactive: 0.00966
7 | GAUCUAUUCUUAAUGCCGATT against TFB1M | inactive: 0.172
8 | GAACAACUACGUGAAUUAUTT against KHDRBS2 | inactive: -0.335
9 | GGAACAUUGCGAUUUGGAATT against CEPT1 | inactive: 0.328
10 | GCCUACUUCUGUACACGGATT against MED12 | inactive: -0.896
11 | GCAUUGGUCAAGAAUAGCATT against KLHL2 | inactive: 0
12 | GGAACGCAUGGAGAACAUUTT against APEH | inactive: -0.0726
13 | GACUAGCUAGAGACAAUGATT against PIK3CA | inactive: 0.0823
14 | ACAUCGCGGUCAUCAAGUATT against MVD | inactive: -0.561
15 | CCAUGCGACUCGAACCUAUTT against FXR2 | inactive: -0.133
16 | AGUCCUUCAUCUUCACAGATT against TBX10 | inactive: 0.175
17 | CGAGCAAUUUAGAGACUUATT against PCDHGA3 | inactive: 0.27
18 | AUAUCGCGCUCAUCACUAUTT against FOXD1 | inactive: -0.659
19 | GCUUGGGUACUGACAAAUATT against KPNA1 | inactive: -0.0231
20 | CCAAGUUUGUUACCAAGAUTT against TRPV4 | inactive: -0.73
21 | GGAAGGCAAAAGAGUAAAATT against NUDT2 | inactive: 0.891
22 | CCAGAAAAAGUAUAUGGGATT against COX6A1 | inactive: -0.0917
23 | CAUCCGGCCUGGAGUGAUATT against PAX8 | inactive: 0
24 | CAAAAGACCUGUAAUAAGATT against MAGT1 | inactive: -0.0855
25 | UGAUAUCCCUUGUCUGUAATT against RHOB | inactive: -0.776
26 | GCAACUGAGUAGAGUCAAATT against UTP14A | inactive: -0.366
27 | UGCUCAUGCUGAUCCGGGATT against TBC1D13 | inactive: 0.33

Pulled one by one from the entries so far (two):
Row | Sequence | median seed-adjusted z-score
11 | GCAUUGGUCAAGAAUAGCATT against KLHL2 | inactive: 0
8 | GAACAACUACGUGAAUUAUTT against KHDRBS2 | inactive: -0.335

Next results:

Row | Sequence | median seed-adjusted z-score
28 | GCAUCCUCGGCUCCACUAUTT against NEURL | inactive: -0.268
29 | AGCCCUAUCUUUGCAAGAUTT against ZIC1 | inactive: 0.162
30 | GCAGCUAGAUUCACUUCUATT against KRT76 | inactive: 0.726
31 | GGACCAUCACCUUUGAGCATT against TPPP | inactive: -0.16
32 | GCGGCCCAAGGAUAUCAUATT against CAPN11 | inactive: -0.273
33 | CGAGCUUUUCACCACCAUATT against SRD5A2 | inactive: 0.185
34 | GAGCAGAUCUGGGACAAGATT against DHRS2 | inactive: 0.35
35 | GCUUCUACACGGCCCAACATT against FDXR | inactive: 0.6
36 | CAACCGCAAAUAUGCCCAUTT against PLA2G2E | inactive: -0.37
37 | GCAUAGACGAGGACCAGUATT against DRP2 | inactive: -0.0555
38 | CGAUCACAGCUACCGACAATT against PCDHGB3 | inactive: 0.275
39 | GCGGCUUCAUAUACAGAUATT against AHCYL2 | inactive: 0.415
40 | GGUCAAUGCUCUAAGUGAATT against CMKLR1 | inactive: -0.704
41 | CAGUUACACUCCAUACGCATT against RTCD1 | inactive: 0.0794
42 | GGCUCAUCUGGUCAACUUUTT against 4-Mar | inactive: 0.168
43 | GAUGGACUGUAACAAAGCATT against GLS2 | inactive: -0.793
44 | GCAACGACUACUAUCCUGATT against RNPEPL1 | inactive: 0
45 | CUGCUACCUCUGACCCAAATT against DTD1 | active: -1.58
46 | GCAACCCGCCUUAACCAUATT against SLC16A7 | inactive: 0
47 | GUAUGAAAAUGAGUGCGAATT against BFSP1 | inactive: 0.057
48 | GAUUGUUGAUGACUGGUUATT against PTP4A1 | inactive: 0.103
49 | UGAAUUUCGUAGUUCCAUATT against CNOT8 | inactive: 0.375
50 | ACAAAUAACUGGAGUCAAATT against HSD17B11 | inactive: 0.379
51 | GAACUGUGACGAAAGGUUUTT against ZNF652 | inactive: 0
52 | GAAGCUAUUAUUACAAGAATT against REL | inactive: -0.358
53 | GCUUUGAUUUCACCAACAATT against GCM2 | inactive: -0.241
54 | GCCUCGAGCCUAUUCGUUATT against PCDHB4 | inactive: 0.00998
